Source: PubChem BioAssay AID1508587 (Peter MacCallum Cancer Centre, 2020)

Purpose: 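Follow-up of vemurafenib sensitisers scored by lactate made per cell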 (follow-up of hits)
Cell system: human WM266.4 melanoma cells with a BRAF V600 mutation
Knock-down reagent: single siRNA against human genes, 25 nM
Timing: 96 h
Challenge: vemurafenib 300 nM (about IC25), given 48 h after transfection for 48 h
Measurement: 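Medium lactate read by absorbance over DAPI-counted nuclei; ratio with versus without vemurafenib, set against non-targeting siRNA, averaged over 2 replicates; cell number also recorded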
Reading the numbers: lactate per cell, drug vs no drug: higher = less drug-induced drop in lactate per cell; lactate per cell with vemurafenib: higher = more lactate per cell under drug
Rule for the call: 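Enhancer call for any duplex whose drug versus no-drug per-cell lactate ratio is below 0.55 (2 SD beneath non-targeting average); genes confirmed when at least 2 of their 4 duplexes qualify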
The deposit covers about 1,600 reagents; shown is a part drawn at random. Over the whole deposit, 623 (39%) got an active call. 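Calls are for each duplex; lactate ratios contain extreme outliers.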 Entries without a mark were called inactive. Reagents against one gene are numbered here. Not all columns of the deposit are shown.

| gene knocked down | reagent | lactate per cell, drug vs no drug | lactate per cell with vemurafenib |
| --- | --- | --- | --- |
| MAP2K7 | 1 | 0.57 | 2.17 |
| MAP2K7 | 2 | 0.62 | 1.16 |
| MAP2K7 | 3 | 0.79 | 1.48 |
| MAP2K7 | 4 | 0.56 | 0.64 |
| MIDN | 1 | 0.7 | 1.13 |
| MIDN | 2 | 0.56 | 1.65 |
| MIDN | 3 | 0.66 | 1 |
| MIDN | 4 | 0.78 | 1.26 |
| UBIAD1 | 1 | 0.46 (active) | 0.48 |
| UBIAD1 | 2 | 0.54 (active) | 2.63 |
| UBIAD1 | 3 | 0.68 | 1.31 |
| UBIAD1 | 4 | 0.62 | 1.12 |
| SHC1 | 1 | 0.65 | 1.1 |
| SHC1 | 2 | 0.52 (active) | 1.18 |
| SHC1 | 3 | 0.46 (active) | 0.49 |
| SHC1 | 4 | 0.87 | 2.09 |
| WFDC13 | 1 | 0.58 | 1.27 |
| WFDC13 | 2 | 0.56 | 0.9 |
| WFDC13 | 3 | 0.83 | 1.56 |
| WFDC13 | 4 | 0.63 | 0.8 |
| TNFRSF10D | 1 | 1.13 | 2.94 |
| TNFRSF10D | 2 | 0.5 (active) | 1.04 |
| TNFRSF10D | 3 | 0.61 | 0.9 |
| TNFRSF10D | 4 | 0.67 | 0.78 |
| PENK | 1 | 0.16 (active) | -0.05 |
| PENK | 2 | 0.4 (active) | 0.9 |
| PENK | 3 | 0.95 | 1.43 |
| PENK | 4 | 0.6 | 1.21 |
| MAGEB4 | 1 | 0.76 | 1.23 |
| MAGEB4 | 2 | 0.56 | 1.4 |
| MAGEB4 | 3 | 0.8 | 1.23 |
| MAGEB4 | 4 | 0.63 | 1.12 |
| ZNF829 | 1 | 0.46 (active) | 1.02 |
| ZNF829 | 2 | 0.65 | 1.22 |
| ZNF829 | 3 | 0.51 (active) | 0.97 |
| ZNF829 | 4 | 0.52 (active) | 1.03 |
| TPRA1 | 1 | 0.5 (active) | 1.67 |
| TPRA1 | 2 | 0.52 (active) | 0.94 |
| TPRA1 | 3 | 0.45 (active) | 0.59 |
| TPRA1 | 4 | 0.67 | 1.15 |
| YBX1 | 1 | 0.44 (active) | 1 |
| YBX1 | 2 | 0.3 (active) | 0.3 |
| YBX1 | 3 | 0.48 (active) | 0.72 |
| YBX1 | 4 | 0.5 (active) | 0.64 |
| AKR1C1 | 1 | 0.64 | 2.34 |
| AKR1C1 | 2 | 0.64 | 1.21 |
| AKR1C1 | 3 | 0.66 | 1.42 |
| AKR1C1 | 4 | 0.69 | 3.04 |
| SMG7 | 1 | 0.48 (active) | 1.6 |
| SMG7 | 2 | 0.43 (active) | 0.67 |
| SMG7 | 3 | 0.51 (active) | 1.02 |
| SMG7 | 4 | 0.4 (active) | 1.13 |
| PMVK | 1 | 0.63 | 1.25 |
| PMVK | 2 | 0.64 | 1.07 |
| PMVK | 3 | 0.77 | 2.34 |
| PMVK | 4 | 0.76 | 0.86 |
| CPA1 | 1 | 0.58 | 1.82 |
| CPA1 | 2 | 0.45 (active) | 1.09 |
| CPA1 | 3 | 0.53 (active) | 1 |
| CPA1 | 4 | 0.9 | 1.88 |
| CD164 | 1 | 0.57 | 0.76 |
| CD164 | 2 | 0.67 | 1.9 |
| CD164 | 3 | 0.44 (active) | 0.54 |
| CD164 | 4 | 0.58 | 0.89 |

In a second layout: entries from further up
{"gene knocked down": "MAP2K7", "reagent": 3, "lactate per cell, drug vs no drug": 0.79, "lactate per cell with vemurafenib": 1.48}
{"gene knocked down": "MAP2K7", "reagent": 4, "lactate per cell, drug vs no drug": 0.56, "lactate per cell with vemurafenib": 0.64}
{"gene knocked down": "MIDN", "reagent": 1, "lactate per cell, drug vs no drug": 0.7, "lactate per cell with vemurafenib": 1.13}
{"gene knocked down": "MIDN", "reagent": 2, "lactate per cell, drug vs no drug": 0.56, "lactate per cell with vemurafenib": 1.65}
{"gene knocked down": "MIDN", "reagent": 3, "lactate per cell, drug vs no drug": 0.66, "lactate per cell with vemurafenib": 1}
{"gene knocked down": "MIDN", "reagent": 4, "lactate per cell, drug vs no drug": 0.78, "lactate per cell with vemurafenib": 1.26}
{"gene knocked down": "UBIAD1", "reagent": 1, "lactate per cell, drug vs no drug": "0.46 (active)", "lactate per cell with vemurafenib": 0.48}
